Measurements reported in PubChem BioAssay AID1671195 (Yale University, 2021)
Here is a random part of about 22,000 reagents. About 1,510 of all reagents (6.9%) were called active. 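Active includes knockdowns raising or lowering LDL uptake; positive z-scores mean more uptake, negative mean less.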 A number with no mark means an inactive call.

Screen: 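Regulators of LDL receptor activity judged by labelled LDL uptake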 (primary screen)
Cells: human Huh7 hepatoma cells
Knock-down reagent: siRNA pool against human genes, 18 nM
Timing: about 2 to 2.5 days of knockdown, then 8 h LDL uptake
Conditions: DiI-labelled LDL at 30 µg/ml for 8 h, in lipoprotein-deficient serum medium
Read-out: 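Per-cell DiI-LDL intensity by automated imaging; well means scaled to the plate median and given as a robust z-score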
Reading the numbers: robust z-score: higher = more LDL uptake after knockdown
Call rule: 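a gene counts as active if at least two replicate z-scores exceed ±2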

gene,"robust z-score, replicate 1","robust z-score, replicate 2","robust z-score, replicate 3"
GOLGA6A (golgin A6 family member A),-0.511,0.591,-0.316
KRT8P45 (keratin 8 pseudogene 45),-1.26,-2.41,-1.1
TBC1D22B (TBC1 domain family member 22B),-2.69,-1.55,-0.903
ANXA13 (annexin A13),-0.909,-1.54,-1.18
EMX2 (empty spiracles homeobox 2),-0.326,-0.526,-0.405
FBXL4 (F-box and leucine rich repeat protein 4),-0.54,-0.13,-0.685
KTI12 (KTI12 chromatin associated homolog),0.12,0.418,0.00716
CHSY3 (chondroitin sulfate synthase 3),-0.852,-1.09,-0.681
LOC440847 (retired record),-1.25,-1.59,-1.27
LOC441018 (retired record),0.332,0.557,0.412
CASQ1 (calsequestrin 1),-1.91,-1.73,-1.51
MAPK8IP2 (mitogen-activated protein kinase 8 interacting protein 2),-0.674,-0.35,-1.37
TBC1D25 (TBC1 domain family member 25),0.0157,-0.438,-0.791
GPR12 (G protein-coupled receptor 12),-2.3 (active),-2.1,-2.59
C1orf116 (chromosome 1 open reading frame 116),1.43,1.75,1.23
AFAP1L1 (actin filament associated protein 1 like 1),-0.65,-0.522,-0.0399
KRTAP4-5 (keratin associated protein 4-5),0.587,1.11,0.173
LRWD1 (leucine rich repeats and WD repeat domain containing 1),0.551,0.385,1.01
LOC440266 (retired record),-1.12,0.834,0.418
NOC4L (nucleolar complex associated 4 homolog),-0.275,-1.01,-0.38
VSIG2 (V-set and immunoglobulin domain containing 2),-1.11,0.285,-2.44
SRRM1 (serine and arginine repetitive matrix 1),0.214,1.1,0.304
BTG3 (BTG anti-proliferation factor 3),-0.373,2.33,1.28
CCN3 (cellular communication network factor 3),3.69 (active),2.49,3.9
PYDC1 (pyrin domain containing 1),-1.85 (active),-2.2,-1.81
LAMB1 (laminin subunit beta 1),-0.242,-0.358,-0.27
EIF2AK2 (eukaryotic translation initiation factor 2 alpha kinase 2),0.00864,1.36,0.974
NRSN1 (neurensin 1),0.41,-0.566,-0.045
AATBC (apoptosis associated transcript in bladder cancer),0.417,0.224,-0.000559
CIAO2B (cytosolic iron-sulfur assembly component 2B),-1.33,0.417,0.562
FRMPD3 (FERM and PDZ domain containing 3),0.439,-0.148,-0.168
ZNF570 (zinc finger protein 570),-2.17 (active),-2.23,-2.37
OR10AD1 (olfactory receptor family 10 subfamily AD member 1),0.938,0.404,-0.219
GARIN6 (golgi associated RAB2 interactor family member 6),-1.24,-1.24,0.103
SLEAR (STAT1 regulated ILF2 complex interacting lncRNA),-0.0686,0.0292,0.0799
BBS12 (Bardet-Biedl syndrome 12),-1.2,-1.42,-0.809
CYP2A7 (cytochrome P450 family 2 subfamily A member 7),-1.19,-1.13,-1.34
CAPS (calcyphosine),-0.726,0.0537,-1
"PCDHGA9 (protocadherin gamma subfamily A, 9)",-0.0378,0.582,0.781
ATG12 (autophagy related 12),0.296,-1.07,-1.2
LINC01566 (long independently transcribed non-coding RNA 1566),-0.413,-0.448,-0.398

Next part (4 carried over from the part before).
gene,"robust z-score, replicate 1","robust z-score, replicate 2","robust z-score, replicate 3"
CAPS (calcyphosine),-0.726,0.0537,-1
"PCDHGA9 (protocadherin gamma subfamily A, 9)",-0.0378,0.582,0.781
ATG12 (autophagy related 12),0.296,-1.07,-1.2
LINC01566 (long independently transcribed non-coding RNA 1566),-0.413,-0.448,-0.398
ENOX1 (ecto-NOX disulfide-thiol exchanger 1),0.235,-0.566,-0.0226
"MUC16 (mucin 16, cell surface associated)",-0.377,-1.62,-1.15
"MT1CP (metallothionein 1C, pseudogene)",0.261,-0.219,0.262
LOC441941 (retired record),0.149,0.269,0.284
GUCA1C (guanylate cyclase activator 1C),-2.09,-1.5,0.0024
BGLAP (bone gamma-carboxyglutamate protein),0.0586,-0.188,0.194
"SEC11A (SEC11 homolog A, signal peptidase complex subunit)",0.431,-0.398,0.438
NR4A3 (nuclear receptor subfamily 4 group A member 3),1.04,0.356,-0.137
RALY (RALY heterogeneous nuclear ribonucleoprotein),-0.0648,1.47,-0.799
"METRNL (meteorin like, glial cell differentiation regulator)",-0.986,-0.589,-0.695
RND2 (Rho family GTPase 2),-1.48,-1.16,-1.23
CXCR3 (C-X-C motif chemokine receptor 3),-0.735,-0.755,-0.0962
LEMD2 (LEM domain nuclear envelope protein 2),-0.442,-0.386,-0.0998
POLR1B (RNA polymerase I subunit B),0.762,0.737,0.474
ADAMTSL4 (ADAMTS like 4),-1.35,0.0411,0.457
LOC440724 (retired record),0.0864,-0.149,0.672
SEPTIN3 (septin 3),0.156,-0.677,-0.421
SLC25A41,-2 (active),-2.14,-2.03
IRAK3 (interleukin 1 receptor associated kinase 3),-1.04,-0.792,-0.416
TMEM63C (transmembrane protein 63C),0.584,0.935,-0.0268
"PSMD8 (proteasome 26S subunit, non-ATPase 8)",1.09,1.08,0.298
LOC441077 (retired record),1.23,1.37,1.47
NIN (ninein),-1.42,-1.09,0.0386
EIF2AK4 (eukaryotic translation initiation factor 2 alpha kinase 4),2.36,1.83,1.05
LOC399961 (retired record),1.61 (active),2.18,2.2
FBXW4 (F-box and WD repeat domain containing 4),-0.577,-1.71,-1.51
PADI1 (peptidyl arginine deiminase 1),-0.863,-0.572,-0.828
MARK3 (microtubule affinity regulating kinase 3),-0.673,-0.142,-0.314
TOR3A (torsin family 3 member A),-1.34,-1.54,-1.67
MDFI (MyoD family inhibitor),0.359,0.577,0.623
GH2 (growth hormone 2),-0.751,0.0909,-0.865
LOC400590 (retired record),-0.349,0.171,-0.0386
LINC02774 (long independently transcribed non-coding RNA 2774),-0.582,-0.521,-0.65
UBE2O (ubiquitin conjugating enzyme E2 O),2.21,0.592,1.62
PRSS22 (serine protease 22),-1.16,-1.28,-0.206
POLK (DNA polymerase kappa),-0.8,-0.799,-0.423
SRMS,1.62,1.53,1.67
CERK (ceramide kinase),-0.582,-0.19,-0.208
SLITRK5 (SLIT and NTRK like family member 5),-0.831,0.421,0.753
TAOK3 (TAO kinase 3),1.54,0.298,1.08
PDE3A (phosphodiesterase 3A),-1.71,-0.551,-1.15
EGFL6 (EGF like domain multiple 6),0.238,-1.87,1.3
"SETD6 (SET domain containing 6, protein lysine methyltransferase)",-0.749,-1.14,-1.18
DNAJC15 (DnaJ heat shock protein family (Hsp40) member C15),1.27,0.184,0.844
LINC01904 (long independently transcribed non-coding RNA 1904),0.564,0.253,0.147
FPGT (fucose-1-phosphate guanylyltransferase),0.135,-0.249,0.476
